The values below come from patent US4018754A (Shionogi & Co., Ltd., priority 1974, dated 1977).

“And” between values parts separate entries of the source, which are not always exact repeats. Equal values may be shown once. The star is where a group is joined. Cbz = O=C(OCc1ccccc1)*; Boc = CC(C)(C)OC(=O)*

A short description of this data set: general procedure: solution-phase peptide synthesis; N,N'-dicyclohexylcarbodiimide with N-hydroxysuccinimide; N-hydroxysuccinimide ac.

On to Cbz-K(Boc)K(Boc)K(Boc)K(Boc)K(Boc)-NH2, for which the step yield (coupling step) was determined as 92.8%.

“Z--Lys(Boc)--Lys(Boc--Lys(Boc--Lys(Boc)--NH2” registered a step yield (coupling step) of 95.3%.

For “Z-Lys(Boc)--Lys(Boc)--Lys(Boc)--Lys(Boc)--Lys(Boc)--Lys(Boc)--NH2”, the step yield (coupling step, run 1) was 99.6% and 96.6%.

H-K(Boc)K(Boc)K(Boc)K(Boc)-NH2 gave a step yield (late stage modification step) of 88.1%.

“Z--Lys(Boc)--pro--Val--Gly--Lys(Boc)--Lys(Boc)--Lys(Boc)--Lys(Boc)--Lys(Boc)--NH2”: where the note is “coupling step”, the step yield is reported as 88.2%.
